Source: article PMC12332402
These are yes or no findings as the source states them, for the method shown. Binding seen in cells or lysates may run through a third protein. Some results given as binding are weak or reduced against the parent protein; the word gives no strength. For some of these results: Tags and fused reporters may be left off the sequences shown.

Amino acid sequences for entries named in this document (tags omitted).
UniProt Q9V7D2: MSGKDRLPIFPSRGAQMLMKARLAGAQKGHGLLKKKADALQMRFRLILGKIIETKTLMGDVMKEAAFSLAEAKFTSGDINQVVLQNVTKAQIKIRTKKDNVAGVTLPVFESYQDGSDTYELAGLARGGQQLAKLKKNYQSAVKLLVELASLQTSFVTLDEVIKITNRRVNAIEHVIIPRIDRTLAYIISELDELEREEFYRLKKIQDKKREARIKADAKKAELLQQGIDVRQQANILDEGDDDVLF
UniProt P12613: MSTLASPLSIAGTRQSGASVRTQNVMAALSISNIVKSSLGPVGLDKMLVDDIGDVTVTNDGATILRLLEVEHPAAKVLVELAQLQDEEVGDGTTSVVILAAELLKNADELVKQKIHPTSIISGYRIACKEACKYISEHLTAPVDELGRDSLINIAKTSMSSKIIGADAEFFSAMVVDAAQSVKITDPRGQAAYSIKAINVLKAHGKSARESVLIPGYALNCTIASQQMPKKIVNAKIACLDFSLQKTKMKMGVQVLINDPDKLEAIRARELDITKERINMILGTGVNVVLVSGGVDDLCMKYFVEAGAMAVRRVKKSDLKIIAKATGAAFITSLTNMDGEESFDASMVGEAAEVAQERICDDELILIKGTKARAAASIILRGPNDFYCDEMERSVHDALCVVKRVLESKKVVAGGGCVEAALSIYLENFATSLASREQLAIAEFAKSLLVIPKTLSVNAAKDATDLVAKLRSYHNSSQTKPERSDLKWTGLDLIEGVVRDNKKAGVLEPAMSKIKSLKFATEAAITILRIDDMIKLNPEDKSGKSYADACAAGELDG
UniProt P00722: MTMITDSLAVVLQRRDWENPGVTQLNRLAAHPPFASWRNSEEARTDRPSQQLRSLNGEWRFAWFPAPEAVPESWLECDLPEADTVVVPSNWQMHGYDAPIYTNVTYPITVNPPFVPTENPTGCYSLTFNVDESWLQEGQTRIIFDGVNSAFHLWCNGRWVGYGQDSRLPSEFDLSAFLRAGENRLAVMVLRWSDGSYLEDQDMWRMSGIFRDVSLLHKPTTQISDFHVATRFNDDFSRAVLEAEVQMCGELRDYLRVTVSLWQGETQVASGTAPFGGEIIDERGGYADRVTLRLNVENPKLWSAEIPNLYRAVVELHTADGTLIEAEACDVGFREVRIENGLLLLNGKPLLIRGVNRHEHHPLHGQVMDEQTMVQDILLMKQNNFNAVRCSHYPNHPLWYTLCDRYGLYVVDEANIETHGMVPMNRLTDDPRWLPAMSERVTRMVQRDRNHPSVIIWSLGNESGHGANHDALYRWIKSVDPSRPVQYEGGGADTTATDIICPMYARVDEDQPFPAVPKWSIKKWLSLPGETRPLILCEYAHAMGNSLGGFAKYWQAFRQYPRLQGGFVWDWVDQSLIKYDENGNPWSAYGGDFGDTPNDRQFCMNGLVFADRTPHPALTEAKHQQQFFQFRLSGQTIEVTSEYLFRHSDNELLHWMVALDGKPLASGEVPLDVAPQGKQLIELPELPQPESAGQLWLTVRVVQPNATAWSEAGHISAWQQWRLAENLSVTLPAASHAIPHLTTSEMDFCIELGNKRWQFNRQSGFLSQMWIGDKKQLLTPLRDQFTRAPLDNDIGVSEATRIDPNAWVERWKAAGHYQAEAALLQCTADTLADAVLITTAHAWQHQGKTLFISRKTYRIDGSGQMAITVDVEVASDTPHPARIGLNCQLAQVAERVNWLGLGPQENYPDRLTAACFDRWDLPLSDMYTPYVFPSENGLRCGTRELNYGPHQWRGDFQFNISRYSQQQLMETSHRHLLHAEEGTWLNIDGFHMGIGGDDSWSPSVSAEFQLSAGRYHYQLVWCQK

How the values were obtained:
[1] = target: V5-tagged Vha36-1 (Drosophila) (UniProt Q9V7D2); experiment: co-IP; S2 cells cotransfected; lysed in RIPA buffer; anti-V5 antibody-coated magnet beads, 6 h at room temperature, eight washes with lysis buffer; Western blot
[2] = target: V5-tagged Vha36-1 (Drosophila) (UniProt Q9V7D2); experiment: co-IP; S2 cells coexpressing V5-Vha36-1, HA-CCT1 and RagA^GTP or RagA^GDP (or LacZ); anti-V5 antibody-coated beads; Western blot
[3] = target: T1, V5-tagged Lamtor4 (Drosophila) (UniProt Q9VZL6); experiment: co-IP; S2 cells cotransfected; lysed in RIPA buffer; anti-V5 antibody-coated magnet beads, 6 h at room temperature, eight washes with lysis buffer; Western blot
T1 sequence: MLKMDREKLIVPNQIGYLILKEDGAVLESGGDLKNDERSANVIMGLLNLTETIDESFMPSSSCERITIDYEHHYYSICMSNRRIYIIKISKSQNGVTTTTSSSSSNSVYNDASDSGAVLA

| binding [1] | binding [2] | binding [3] | Substance |
| --- | --- | --- | --- |
| binds | binds | – | HA-tagged CCT1 (from UniProt P12613 1-557) |
| no binding | – | no binding | HA-tagged LacZ (from UniProt P00722 1-1024) |
